Results published in publication PMC3079584.

Protein sequences, listed by entry. Tags and fused reporters are not part of them. Lines headed by an entry give the natural chain unless they say otherwise; changes in a name come on top.
UniProt P36068: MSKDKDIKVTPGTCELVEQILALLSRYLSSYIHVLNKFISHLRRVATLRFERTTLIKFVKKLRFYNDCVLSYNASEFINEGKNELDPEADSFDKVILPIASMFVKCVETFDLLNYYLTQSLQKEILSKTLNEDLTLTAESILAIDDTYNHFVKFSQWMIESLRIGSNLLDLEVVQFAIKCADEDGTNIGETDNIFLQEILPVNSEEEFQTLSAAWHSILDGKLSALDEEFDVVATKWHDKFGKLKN

Molecular target: She2p-Myc (ΔhE) (Saccharomyces cerevisiae) (UniProt P36068)
Experiment: co-IP; anti-Myc antibody (9E11) on magnetic Protein G beads precipitates She2p-Myc from yeast (she2Δ background); Western blot against HA-tagged She3p; two independent blots quantified

binding: binds weakly
B1: HA-tagged She3p (protein, UniProt P38272 1-425)
chain: MSDQDNTQTSSSKLAPHHNIFMANLESSPTKDRNTSSQNASSSRVIESLHDQIDMLTKTNLQLTTQSQNLLSKLELAQSKESKLLENLNLLKNENENLNSIFERKNKKLKELEKDYSELSNRYNEQKEKMDQLSKLAKNSSAIEQSCSEKLQNMEVNYNSLLESQNLYRDHYSDEISKLNEKIGLLELELSNQNLNYGSDTSSNSDIELNLNKFNDSVKDLKSLETEKDSKLSKIITHSLDELNLQSWLNLYQTNENLISTFAEKMDLKDVLKRNDEKISNKGAVVQTLKKNVQTQVESNNADALSSNNAQDMLPIKMVKLRKTPNTNDSSSNGNSSNNKRRSFYTASPLLSSGSIPKSASPVLPGVKRTASVRKPSSSSSKTNVTHNNDPSTSPTISVPPGVTRTVSSTHKKKGNSMVVHGAQS

No constants are given. Whether binding was seen depends on the method and setting. Binding seen in cells or lysates may run through a third protein. A result given as binding can be weak or reduced; the word gives no strength. Where a sequence is shown, tags or fusion partners need not be part of it.
